{
  "source": "the supplement of paper PMC8728848",
  "binders": {"B1": {"name": "Spy 2007 (Streptococcus pyogenes), Q99XV3 (protein)", "chain": "MKKGFFLMAMVVSLVMIAGCDKSANPKQPTQGMSVVTSFYPMYAMTKEVSGDLNDVRMIQSGAGIHSFEPSVNDVAAIYDADLFVYHSHTLEAWARDLDPNLKKSKVDVFEASKPLTLDRVKGLEDMEVTQGIDPATLYDPHTWTDPVLAGEEAVNIAKELGRLDPKHKDSYTKNAKAFKKEAEQLTEEYTQKFKKVRSKTFVTQHTAFSYLAKRFGLKQLGISGISPEQEPSPRQLKEIQDFVKEYNVKTIFAEDNVNPKIAHAIAKSTGAKVKTLSPLEAAPSGNKTYLENLRANLEVLYQQLK"}},
  "test_in_all_cases": "glycan array binding signal (z-score within array); higher = stronger binding",
  "details_in_all_cases": "glycan notation: IUPAC condensed, linker removed",
  "key": {"Glc(a1-4)Glc": {"biological_target": "Glc(a1-4)Glc", "in_short": "(§1)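 Glycan array data came from 3228 arrays in the Consortium for Functional Glycomics database, and only arrays with an available protein sequence were kept. Glycan names were put into IUPAC-condensed notation, and columns mapping to the same glycan were averaged. The binding signal is a within-array Z-score, averaged across arrays of one protein sequence run at different concentrations or buffers and across linkers. A negative Z-score can be read as non-binding.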"}, "Glc(a1-6)Glc(a1-6)Glc": {"biological_target": "Glc(a1-6)Glc(a1-6)Glc", "in_short": "as §1"}, "Glc(b1-4)Glc": {"biological_target": "Glc(b1-4)Glc", "in_short": "as §1"}, "Glc(b1-6)Glc": {"biological_target": "Glc(b1-6)Glc", "in_short": "as §1"}, "GlcA(b1-3)Gal": {"biological_target": "GlcA(b1-3)Gal", "in_short": "as §1"}, "GlcA(b1-3)GlcNAc": {"biological_target": "GlcA(b1-3)GlcNAc", "in_short": "as §1"}, "GlcA(b1-6)Gal": {"biological_target": "GlcA(b1-6)Gal", "in_short": "as §1"}, "[1]": {"biological_target": "GlcNAc(a1-3)Gal(b1-4)GlcNAc", "in_short": "as §1"}, "[2]": {"biological_target": "GlcNAc(a1-4)Gal(b1-3)GlcNAc", "in_short": "as §1"}, "[3]": {"biological_target": "GlcNAc(a1-4)Gal(b1-4)GalNAc", "in_short": "as §1"}, "[4]": {"biological_target": "GlcNAc(a1-4)Gal(b1-4)GlcNAc", "in_short": "as §1"}, "[5]": {"biological_target": "GlcNAc(a1-4)Gal(b1-4)GlcNAc(b1-3)Gal(b1-4)Glc", "in_short": "as §1"}, "[6]": {"biological_target": "GlcNAc(a1-4)Gal(b1-4)GlcNAc(b1-3)Gal(b1-4)GlcNAc", "in_short": "as §1"}, "[7]": {"biological_target": "GlcNAc(a1-4)Gal(b1-4)GlcNAc(b1-3)Gal(b1-4)GlcNAc(b1-3)Gal(b1-4)GlcNAc", "in_short": "as §1"}, "[8]": {"biological_target": "GlcNAc(a1-4)Gal(b1-4)GlcNAc(b1-3)Gal(b1-4)[Fuc(a1-3)]GlcNAc(b1-3)Gal(b1-4)[Fuc(a1-3)]GlcNAc", "in_short": "as §1"}, "[9]": {"biological_target": "GlcNAc(a1-6)Gal(b1-4)GlcNAc", "in_short": "as §1"}, "[10]": {"biological_target": "GlcNAc(b1-2)Gal(b1-3)GalNAc", "in_short": "as §1"}, "[11]": {"biological_target": "GlcNAc(b1-2)Man(a1-3)[GlcNAc(b1-2)Man(a1-6)]Man(b1-4)GlcNAc(b1-4)GlcNAc", "in_short": "as §1"}, "[12]": {"biological_target": "GlcNAc(b1-2)Man(a1-3)[GlcNAc(b1-2)Man(a1-6)]Man(b1-4)GlcNAc(b1-4)[Fuc(a1-6)]GlcNAc", "in_short": "as §1"}, "GlcNAc(b1-3)Gal": {"biological_target": "GlcNAc(b1-3)Gal", "in_short": "as §1"}, "[13]": {"biological_target": "GlcNAc(b1-3)Gal(b1-3)GalNAc", "in_short": "as §1"}, "GlcNAc(b1-3)Gal(b1-4)Glc": {"biological_target": "GlcNAc(b1-3)Gal(b1-4)Glc", "in_short": "as §1"}, "[14]": {"biological_target": "GlcNAc(b1-3)Gal(b1-4)GlcNAc", "in_short": "as §1"}, "[15]": {"biological_target": "GlcNAc(b1-3)Gal(b1-4)GlcNAc(b1-3)Gal(b1-4)GlcNAc", "in_short": "as §1"}, "GlcNAc(b1-3)GalNAc": {"biological_target": "GlcNAc(b1-3)GalNAc", "in_short": "as §1"}, "GlcNAc(b1-3)Man": {"biological_target": "GlcNAc(b1-3)Man", "in_short": "as §1"}, "[16]": {"biological_target": "GlcNAc(b1-3)[GlcNAc(b1-4)][GlcNAc(b1-6)]GlcNAc", "in_short": "as §1"}, "[17]": {"biological_target": "GlcNAc(b1-3)[GlcNAc(b1-6)]Gal(b1-4)GlcNAc", "in_short": "as §1"}, "[18]": {"biological_target": "GlcNAc(b1-3)[GlcNAc(b1-6)]GalNAc", "in_short": "as §1"}, "[19]": {"biological_target": "GlcNAc(b1-4)Gal(b1-4)GlcNAc", "in_short": "as §1"}, "GlcNAc(b1-4)GlcNAc": {"biological_target": "GlcNAc(b1-4)GlcNAc", "in_short": "as §1"}, "[20]": {"biological_target": "GlcNAc(b1-4)GlcNAc(b1-4)GlcNAc", "in_short": "as §1"}, "[21]": {"biological_target": "GlcNAc(b1-4)GlcNAc(b1-4)GlcNAc(b1-4)GlcNAc(b1-4)GlcNAc", "in_short": "as §1"}, "[22]": {"biological_target": "GlcNAc(b1-4)GlcNAc(b1-4)GlcNAc(b1-4)GlcNAc(b1-4)GlcNAc(b1-4)GlcNAc", "in_short": "as §1"}, "[23]": {"biological_target": "GlcNAc(b1-4)[GlcNAc(b1-6)]GalNAc", "in_short": "as §1"}, "[24]": {"biological_target": "GlcNAc(b1-6)Gal(b1-4)GlcNAc", "in_short": "as §1"}, "GlcNAc(b1-6)GalNAc": {"biological_target": "GlcNAc(b1-6)GalNAc", "in_short": "as §1"}, "GlcNAc3Prop(b1-4)GlcNAc": {"biological_target": "GlcNAc3Prop(b1-4)GlcNAc", "in_short": "as §1"}, "[25]": {"biological_target": "GlcNAc6S(b1-3)Gal(b1-4)GlcNAc", "in_short": "as §1"}, "Kdn(a2-3)Gal(b1-3)GalNAc": {"biological_target": "Kdn(a2-3)Gal(b1-3)GalNAc", "in_short": "as §1"}, "Kdn(a2-3)Gal(b1-3)GlcNAc": {"biological_target": "Kdn(a2-3)Gal(b1-3)GlcNAc", "in_short": "as §1"}, "Kdn(a2-3)Gal(b1-4)Glc": {"biological_target": "Kdn(a2-3)Gal(b1-4)Glc", "in_short": "as §1"}, "Kdn(a2-3)Gal(b1-4)GlcNAc": {"biological_target": "Kdn(a2-3)Gal(b1-4)GlcNAc", "in_short": "as §1"}, "[26]": {"biological_target": "Kdn(a2-3)Gal(b1-4)[Fuc(a1-3)]GlcNAc", "in_short": "as §1"}, "Kdn(a2-6)Gal(b1-4)GlcNAc": {"biological_target": "Kdn(a2-6)Gal(b1-4)GlcNAc", "in_short": "as §1"}},
  "note": "The list shows a part of the results.",
  "data": [
    {"binder": "B1", "values": [
      {"measurement": "glycan array binding signal (z-score)", "setting": "Glc(a1-4)Glc", "result": -0.547},
      {"measurement": "glycan array binding signal (z-score)", "setting": "Glc(a1-6)Glc(a1-6)Glc", "result": -0.985},
      {"measurement": "glycan array binding signal (z-score)", "setting": "Glc(b1-4)Glc", "result": -0.481},
      {"measurement": "glycan array binding signal (z-score)", "setting": "Glc(b1-6)Glc", "result": -0.764},
      {"measurement": "glycan array binding signal (z-score)", "setting": "GlcA(b1-3)Gal", "result": -0.56},
      {"measurement": "glycan array binding signal (z-score)", "setting": "GlcA(b1-3)GlcNAc", "result": -0.632},
      {"measurement": "glycan array binding signal (z-score)", "setting": "GlcA(b1-6)Gal", "result": -0.518},
      {"measurement": "glycan array binding signal (z-score)", "setting": "[1]", "result": 0.137},
      {"measurement": "glycan array binding signal (z-score)", "setting": "[2]", "result": 0.632},
      {"measurement": "glycan array binding signal (z-score)", "setting": "[3]", "result": -0.513},
      {"measurement": "glycan array binding signal (z-score)", "setting": "[4]", "result": 0.434},
      {"measurement": "glycan array binding signal (z-score)", "setting": "[5]", "result": 0.12},
      {"measurement": "glycan array binding signal (z-score)", "setting": "[6]", "result": -0.702},
      {"measurement": "glycan array binding signal (z-score)", "setting": "[7]", "result": 1.4},
      {"measurement": "glycan array binding signal (z-score)", "setting": "[8]", "result": 3.22},
      {"measurement": "glycan array binding signal (z-score)", "setting": "[9]", "result": 0.665},
      {"measurement": "glycan array binding signal (z-score)", "setting": "[10]", "result": -0.732},
      {"measurement": "glycan array binding signal (z-score)", "setting": "[11]", "result": -0.372},
      {"measurement": "glycan array binding signal (z-score)", "setting": "[12]", "result": 0.524},
      {"measurement": "glycan array binding signal (z-score)", "setting": "GlcNAc(b1-3)Gal", "result": -1.43},
      {"measurement": "glycan array binding signal (z-score)", "setting": "[13]", "result": -0.586},
      {"measurement": "glycan array binding signal (z-score)", "setting": "GlcNAc(b1-3)Gal(b1-4)Glc", "result": -0.332},
      {"measurement": "glycan array binding signal (z-score)", "setting": "[14]", "result": -0.491},
      {"measurement": "glycan array binding signal (z-score)", "setting": "[15]", "result": 0.044},
      {"measurement": "glycan array binding signal (z-score)", "setting": "GlcNAc(b1-3)GalNAc", "result": -0.545},
      {"measurement": "glycan array binding signal (z-score)", "setting": "GlcNAc(b1-3)Man", "result": -0.723},
      {"measurement": "glycan array binding signal (z-score)", "setting": "[16]", "result": -0.255},
      {"measurement": "glycan array binding signal (z-score)", "setting": "[17]", "result": -0.86},
      {"measurement": "glycan array binding signal (z-score)", "setting": "[18]", "result": -0.403},
      {"measurement": "glycan array binding signal (z-score)", "setting": "[19]", "result": 0.077},
      {"measurement": "glycan array binding signal (z-score)", "setting": "GlcNAc(b1-4)GlcNAc", "result": -0.446},
      {"measurement": "glycan array binding signal (z-score)", "setting": "[20]", "result": -0.594},
      {"measurement": "glycan array binding signal (z-score)", "setting": "[21]", "result": 4.65},
      {"measurement": "glycan array binding signal (z-score)", "setting": "[22]", "result": 0.758},
      {"measurement": "glycan array binding signal (z-score)", "setting": "[23]", "result": -0.596},
      {"measurement": "glycan array binding signal (z-score)", "setting": "[24]", "result": -0.144},
      {"measurement": "glycan array binding signal (z-score)", "setting": "GlcNAc(b1-6)GalNAc", "result": -0.525},
      {"measurement": "glycan array binding signal (z-score)", "setting": "GlcNAc3Prop(b1-4)GlcNAc", "result": -0.595},
      {"measurement": "glycan array binding signal (z-score)", "setting": "[25]", "result": -0.759},
      {"measurement": "glycan array binding signal (z-score)", "setting": "Kdn(a2-3)Gal(b1-3)GalNAc", "result": -0.506},
      {"measurement": "glycan array binding signal (z-score)", "setting": "Kdn(a2-3)Gal(b1-3)GlcNAc", "result": -0.448},
      {"measurement": "glycan array binding signal (z-score)", "setting": "Kdn(a2-3)Gal(b1-4)Glc", "result": -1.04},
      {"measurement": "glycan array binding signal (z-score)", "setting": "Kdn(a2-3)Gal(b1-4)GlcNAc", "result": -0.442},
      {"measurement": "glycan array binding signal (z-score)", "setting": "[26]", "result": 0.055},
      {"measurement": "glycan array binding signal (z-score)", "setting": "Kdn(a2-6)Gal(b1-4)GlcNAc", "result": -0.715}
    ]}
  ]
}
